The record followed here is patent publication US20240092914A1 (NEW PARADIGM BIOSCIENCES USA, published 2024).

Protein sequences, listed by entry. Tags and fused reporters are not part of them. Residues count along the entry.
UniProt Q8WTT0, residues 45-213: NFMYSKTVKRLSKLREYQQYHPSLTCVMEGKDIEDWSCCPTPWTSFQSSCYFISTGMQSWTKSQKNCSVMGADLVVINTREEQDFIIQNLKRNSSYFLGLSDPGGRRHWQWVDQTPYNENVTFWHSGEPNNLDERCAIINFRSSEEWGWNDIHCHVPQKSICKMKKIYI

The target in assay [1] is BDCA-2 antigen (Biorbyt CLEC4C orb358925) (human) (UniProt Q8WTT0). Kind of assay: ELISA, absorbance 450 - 590 nm; the coated antigen is not named for this figure and is taken from the in-house NPB-303 binding ELISA of paragraph 305. (In general: In an ELISA, binding on a coated surface is turned into a signal by an enzyme label.)
Assay [2] shares this target. Kind of assay: ELISA, plate coated with BDCA-2 antigen, detection with HRP anti-human IgG Fc, A450 corrected by A590.

No constants are given. Whether binding was seen depends on the method and setting. Some entries that bind do so weakly or less than the wild type.

B1: NPB-303 humanized anti-BDCA2 monoclonal antibody (huIgG1) (antibody, V domains shown)
VH: EVQLVESGGGLVKPGGSLRLSCAASGFTFSTMSWVRQAPGKRLEWVASISSGGSTYYPDSVKGRFTISRDNAKNSLYLQMNSLRAEDTAVYYCARPSYDGYSSWFAYWGQGTLVTVSS
VL: EIVLTQSPATLSLSPGERATLSCKASQSVDYDGDGFMNWYQQKPGQAPRLLIYTASNLESGVPARFSGSGSGTDFTLTISSLEPEDFAVYYCQQSNEDPWTFGGGTKVEIKR
notes: Humanized from mouse mAb 12b, human IgG1/kappa
B1: the binding entry in assay [1] and in assay [2] was “binds” throughout.
